Taken from: PubChem BioAssay AID504786 (Drosophila RNAi Screening Center, 2011)
Test: 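Knock-downs reducing HIF reporter induction by the iron chelator DFO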 (primary screen). Cells: Drosophila S2 cells with a stable HIF luciferase reporter. Reagents: long dsRNA against Drosophila genes, about 0.2 µg dsRNA per well of a 384-well plate. Timing: three days of knock-down, then 20 h of DFO before reading. Challenge: desferrioxamine (DFO) at 100 µM, an iron chelator that mimics hypoxia, for 20 h. Read-out: 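Firefly luciferase driven by the mouse ldh-a hypoxia-response element, measured after 20 h of 100 µM DFO; z-scores per plate, higher means more signal lost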. Reading the numbers: z-score: higher = stronger loss of HIF reporter signal.
The screen tested about 21,000 reagents; shown is a random part of those with a known target gene and a result. 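Primary screen; positive scores mean lost reporter signal, so the sign may be inverted from the usual convention.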 The numbers tell different reagents against one gene apart. A plus sign joins genes that one reagent is predicted to hit. No sequences are given here.

gene,reagent no.,"z-score, replicate 1","z-score, replicate 2","z-score, replicate 3","z-score, replicate 4"
CG4440 (GeneID 50458),1,0.1,0.7,,
Ugt301D1 (GeneID 35105),1,-0.3,1.1,,
CG15373 (GeneID 32784),1,-0.2,0.1,,
Cnb (GeneID 38258),1,-0.3,-0.4,,
CG10591 (GeneID 38634),1,-0.4,-0.2,,
Vha100-1 (GeneID 43442),1,-0.4,-1,,
CG4267 (GeneID 33405),1,-0.4,-0.7,,
RpS19a (GeneID 32635),1,8.9,5.4,,
betaTry (GeneID 47901),1,-0.4,-0.3,-0.3,0.1
CG7031 (GeneID 42704),1,3.1,0.2,,
Dyb (GeneID 36362),1,-0.3,-0.9,-0.2,-0.1
yellow-e3 (GeneID 41651),1,-0.3,-0.5,,
Gr10a (GeneID 117501),1,-0.4,0.5,,
CG7044 (GeneID 42497),1,-0.2,-0.4,,
lncRNA:CR42862 + CG33229,1,-0.2,0,,
nAChRbeta3 (GeneID 33228),1,-0.2,-0.2,,
Cka (GeneID 34096),1,-0.3,-0.5,,
CG33777 (GeneID 3772311),1,-0.2,-0.2,,
Alp4 (GeneID 43671),1,0,-0.2,,
TTLL12 (GeneID 35732),1,-0.2,-0.3,,
CG34231 (GeneID 5740811),1,-0.1,-0.2,,
mRpL17 (GeneID 38046),1,1.2,1.1,,
Gr47b (GeneID 117345),1,-0.2,-0.1,,
CG9864 (GeneID 37287),1,-0.3,0,,
Ras85D (GeneID 41140),1,2.1,1.9,,
neb (GeneID 35293),1,-0.1,0.4,,
CG42354 + CG42353,1,0.1,0.8,,
Ir7g (GeneID 31694),1,-0.1,0.6,,
obst-I (GeneID 317966),1,-0.3,-0.3,,
CG15725 (GeneID 32224),1,-0.2,-0.6,,
Pig1 (GeneID 31303),1,0.8,0.3,,
beat-IIIb (GeneID 35031),1,-0.3,-0.7,,
CG5039 (GeneID 43100),1,-0.3,-0.1,,
CG6576 (GeneID 39003),1,-0.4,-0.3,,
Mcad (GeneID 38864),1,-0.3,-0.4,,
ppk8 (GeneID 318213),1,-0.1,0,,
CG30440 (GeneID 35496),1,-0.4,0,,
CG30440 (GeneID 35496),2,-0.4,-0.2,,
CG30440 (GeneID 35496),3,-0.4,0,,
CG31176 (GeneID 42554),1,0,-0.2,,
CG31176 (GeneID 42554),2,0.3,0.2,,
tin (GeneID 42536),1,0.2,0.5,,
hfw (GeneID 31120),1,-0.3,-0.5,,
Naa15-16 (GeneID 32934),1,-1.3,-1.2,-0.3,-0.5
ldd (GeneID 318066),1,-0.2,-0.3,,
CG12490 (GeneID 37623),1,-0.3,-0.3,,
CheB38a (GeneID 2768934),1,0,-0.1,-0.5,-0.2
PIG-Q (GeneID 117366),1,-0.3,-0.1,,
CHKov1 (GeneID 43067),1,0.2,0.9,,
CHKov1 (GeneID 43067),2,0.3,0.1,,
CHKov1 (GeneID 43067),3,-0.4,-0.4,,
CHKov1 (GeneID 43067),4,0,0,,
CG10433 (GeneID 37458),1,-0.3,-0.3,,
CG6901 (GeneID 41977),1,-0.1,-0.2,,
Cyp1 (GeneID 32595),1,-0.3,0,,
Nmnat (GeneID 42987),1,0.1,-0.7,,

9 entries from above, limited to “z-score, replicate 2”.
beat-IIIb (GeneID 35031)	-0.7
CG5039 (GeneID 43100)	-0.1
CG6576 (GeneID 39003)	-0.3
Mcad (GeneID 38864)	-0.4
ppk8 (GeneID 318213)	0
CG30440 (GeneID 35496) #1	0
CG30440 (GeneID 35496) #2	-0.2
CG30440 (GeneID 35496) #3	0
CG31176 (GeneID 42554) #1	-0.2
